From publication PMC10951066, “The self-reactive FVIII T cell repertoire in healthy individuals relies on a short set of epitopes and public clonotypes” (Frontiers in Immunology, 2024)

System: CD4 T cells from healthy donors
Assay: TCR CDR3β bulk sequencing of sorted antigen-specific CD4 T cells
Format: cell-based, human

B1: ovalbumin: chicken ovalbumin, non-self-protein benchmark (protein, UniProt P01012 2-386, looked up)
Ovalbumin: GSIGAASMEFCFDVFKELKVHHANENIFYCPIAIMSALAMVYLGAKDSTRTQINKVVRFDKLPGFGDSIEAQCGTSVNVHSSLRDILNQITKPNDVYSFSLASRLYAEERYPILPEYLQCVKELYRGGLEPINFQTAADQARELINSWVESQTNGIIRNVLQPSSVDSQTAMVLVNAIVFKGLWEKAFKDEDTQAMPFRVTEQESKPVQMMYQIGLFRVASMASEKMKILELPFASGTMSMLVLLPDEVSGLEQLESIINFEKLTEWTSSNVMEERKIKVYLPRMKMEEKYNLTSVLMAMGITDVFSSSANLSGISSAESLKISQAVHAAHAEINEAGREVVGSAEAGVDAASVSEEFRADHPFLFCIKHIATNAVLFFGRCVSP
How did the Gini-Simpson index (T cell repertoire diversity, four donors) turn out when B1 was run?
Its Gini-Simpson index is 0.95.

What about the “average number per donor of detected clonotypes” value (four donors) of the same molecule?
The value was 918.

What about the total clonotypes detected (four donors) of the same molecule?
Its total clonotypes detected is 3,672.

What about the “clonotypes covering 50% of the total repertoire” value (on average per donor) of the same molecule?
Its value is 33.
